Results are given in words; binding and its absence hold for the method and conditions named. In cells and extracts the contact can be indirect. Some binding calls cover weakened binding; strength is not graded here.
Biological target: T1, NOX4 (mouse (endogenous in bEnd.3)) (UniProt Q9JHI8)
T1 sequence: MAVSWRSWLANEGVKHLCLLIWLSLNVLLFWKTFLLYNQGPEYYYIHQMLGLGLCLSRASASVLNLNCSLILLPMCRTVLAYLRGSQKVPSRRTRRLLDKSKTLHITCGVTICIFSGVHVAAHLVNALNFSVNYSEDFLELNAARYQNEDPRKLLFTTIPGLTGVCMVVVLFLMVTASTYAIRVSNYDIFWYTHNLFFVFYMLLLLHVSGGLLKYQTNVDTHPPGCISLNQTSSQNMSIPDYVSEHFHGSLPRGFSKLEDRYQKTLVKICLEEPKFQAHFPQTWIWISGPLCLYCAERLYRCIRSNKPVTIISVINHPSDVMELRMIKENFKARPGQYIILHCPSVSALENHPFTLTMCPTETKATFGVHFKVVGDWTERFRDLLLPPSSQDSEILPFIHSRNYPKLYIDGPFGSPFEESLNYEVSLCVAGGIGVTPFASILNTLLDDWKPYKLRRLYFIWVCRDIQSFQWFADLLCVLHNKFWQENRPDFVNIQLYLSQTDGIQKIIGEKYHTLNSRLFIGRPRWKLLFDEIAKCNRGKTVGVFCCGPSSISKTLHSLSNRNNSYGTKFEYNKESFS
Assay: co-IP; bEnd.3 cells after OGD and reperfusion, with or without SCM-198; lysed in RIPA buffer, precleared with normal IgG; 0.5 mg lysate protein incubated overnight at 4°C with anti-NOX4 and anti-p-STAT3, protein A/G Plus-Agarose 1 h at 4°C; western blot

Protein sequences, listed by entry. Tags and fused reporters are not part of them.
UniProt P42227: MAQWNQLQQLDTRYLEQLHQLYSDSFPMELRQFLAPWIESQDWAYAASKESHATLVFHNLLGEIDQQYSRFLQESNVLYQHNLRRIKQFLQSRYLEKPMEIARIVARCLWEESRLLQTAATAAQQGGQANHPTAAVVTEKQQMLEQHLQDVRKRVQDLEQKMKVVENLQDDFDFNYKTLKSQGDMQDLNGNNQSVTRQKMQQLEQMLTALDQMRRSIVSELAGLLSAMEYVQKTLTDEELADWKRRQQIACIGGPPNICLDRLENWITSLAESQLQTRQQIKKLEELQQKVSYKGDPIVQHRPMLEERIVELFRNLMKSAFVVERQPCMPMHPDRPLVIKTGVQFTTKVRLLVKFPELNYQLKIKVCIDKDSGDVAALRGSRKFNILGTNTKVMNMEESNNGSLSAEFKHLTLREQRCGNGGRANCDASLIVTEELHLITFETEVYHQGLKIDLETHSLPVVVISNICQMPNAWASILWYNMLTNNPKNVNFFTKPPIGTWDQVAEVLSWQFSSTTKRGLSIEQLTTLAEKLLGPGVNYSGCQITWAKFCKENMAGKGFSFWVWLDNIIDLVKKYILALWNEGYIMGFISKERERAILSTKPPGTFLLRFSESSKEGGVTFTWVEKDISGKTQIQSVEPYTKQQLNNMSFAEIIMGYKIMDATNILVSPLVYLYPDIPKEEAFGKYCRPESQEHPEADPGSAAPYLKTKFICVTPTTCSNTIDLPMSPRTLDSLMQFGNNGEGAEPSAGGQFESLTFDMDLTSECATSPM

p-STAT3 (from UniProt P42227 1-770)
binding: binds
